Experimental data as given in publication PMC11183058.
Results are given in words; binding and its absence hold for the method and conditions named. Binding seen in cells or lysates may run through a third protein. Some results given as binding are weak or reduced against the parent protein; the word gives no strength.

Sequences of proteins named here, by UniProt entry; tags and fusion partners are left off.
UniProt Q13330: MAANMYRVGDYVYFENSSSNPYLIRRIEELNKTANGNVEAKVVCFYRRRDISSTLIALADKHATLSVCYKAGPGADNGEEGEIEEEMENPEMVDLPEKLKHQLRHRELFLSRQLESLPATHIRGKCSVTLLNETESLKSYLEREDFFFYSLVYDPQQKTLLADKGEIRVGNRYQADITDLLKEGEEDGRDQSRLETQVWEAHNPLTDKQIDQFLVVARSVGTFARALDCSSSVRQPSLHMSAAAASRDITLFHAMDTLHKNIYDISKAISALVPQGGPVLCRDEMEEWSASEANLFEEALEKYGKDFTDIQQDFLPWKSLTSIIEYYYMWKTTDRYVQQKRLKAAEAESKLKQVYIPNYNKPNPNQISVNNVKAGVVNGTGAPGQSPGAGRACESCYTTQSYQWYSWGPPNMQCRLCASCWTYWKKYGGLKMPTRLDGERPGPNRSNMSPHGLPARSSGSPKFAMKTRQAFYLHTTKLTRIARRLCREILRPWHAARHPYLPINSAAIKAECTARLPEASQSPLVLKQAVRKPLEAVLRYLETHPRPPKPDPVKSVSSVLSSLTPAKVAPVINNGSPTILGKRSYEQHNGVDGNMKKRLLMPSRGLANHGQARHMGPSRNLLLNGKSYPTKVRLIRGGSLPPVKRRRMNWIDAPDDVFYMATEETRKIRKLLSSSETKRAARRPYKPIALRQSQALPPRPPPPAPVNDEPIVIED
UniProt Q8WXI9: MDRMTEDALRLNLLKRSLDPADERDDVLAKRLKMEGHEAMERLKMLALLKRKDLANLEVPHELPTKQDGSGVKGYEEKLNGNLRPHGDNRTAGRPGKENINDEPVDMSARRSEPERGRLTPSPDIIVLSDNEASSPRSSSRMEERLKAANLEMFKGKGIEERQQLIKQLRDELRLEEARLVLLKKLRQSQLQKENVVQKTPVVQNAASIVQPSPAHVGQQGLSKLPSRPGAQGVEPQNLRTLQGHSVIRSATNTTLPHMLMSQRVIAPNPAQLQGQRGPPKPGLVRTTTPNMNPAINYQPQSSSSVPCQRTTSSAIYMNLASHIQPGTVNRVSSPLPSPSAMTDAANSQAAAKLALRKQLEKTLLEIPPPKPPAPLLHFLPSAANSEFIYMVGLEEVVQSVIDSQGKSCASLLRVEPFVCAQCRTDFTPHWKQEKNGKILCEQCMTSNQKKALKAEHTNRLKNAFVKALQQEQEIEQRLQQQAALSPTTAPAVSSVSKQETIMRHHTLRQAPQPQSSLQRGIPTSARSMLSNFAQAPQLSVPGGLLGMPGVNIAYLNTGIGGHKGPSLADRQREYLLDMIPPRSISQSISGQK

Biological target: MTA1 (human (endogenous in human cell lines)) (UniProt Q13330)
Test: proximity ligation; Duolink in situ PLA on cells fixed with 4% paraformaldehyde and permeabilised with 0.2% Triton X-100, primary antibodies to the two endogenous proteins; cells with or without 5 Gy IR followed by 20 min recovery

## GATAD2B (from UniProt Q8WXI9 1-593)
  binding: binds
